Reference: patent US20130090476A1, “Thiazolylpiperidine Derivatives as Fungicides” (priority 2009, published 2013)
Some of these results come from one statement about several compounds together.

Assays:
Plasmopara viticola = assay: Plasmopara test (grapevine)/protective; type: in vivo; details: young grapevine plants, protective, active compound concentration 100 ppm, evaluation 6 days after inoculation
Phytophthora infestans = type: in vivo; details: young tomato plants, protective, active compound concentration 500 ppm, evaluation 7 days after inoculation

Row | SMILES | efficacy (Plasmopara viticola) | efficacy (Phytophthora infestans)
1 | Cc1cc(C(F)(F)F)nn1CC(=O)N1CCC(c2nc(CSc3cccc4ccccc34)cs2)CC1 [Compound I-1, 2-[5-Methyl-3-(trifluoromethyl)-1H-pyrazol-1-yl]-1-(4-{4-[(1-naphthylsulphanyl)methyl]-1,3-thiazol-2-yl}piperidin-1-yl)ethanone] | ≥ 70% | –
2 | Cc1cc(C(F)(F)F)nn1CC(=O)N1CCC(c2nc(CSC34CC5CC(CC(C5)C3)C4)cs2)CC1 [Compound I-2, 1-[4-(4-{[(3S,5S,7S)-Adamantan-1-ylsulphanyl]methyl}-1,3-thiazol-2-yl)piperidin-1-yl]-2-[5-methyl-3-(trifluoromethyl)-1H-pyrazol-1-yl]ethanone] | ≥ 70% | ≥ 70%
3 | Cc1cc(C(F)(F)F)nn1CC(=O)N1CCC(c2nc(CSc3nnnn3-c3ccccc3)cs2)CC1 [Compound I-4, 2-[5-Methyl-3-(trifluoromethyl)-1H-pyrazol-1-yl]-1-[4-(4-{[(1-phenyl-1H-tetrazol-5-yl)sulphanyl]methyl}-1,3-thiazol-2-yl)piperidin-1-yl]ethanone] | ≥ 70% | –
4 | Cc1cc(C(F)(F)F)nn1CC(=O)N1CCC(c2nc(CS(=O)(=O)C34CC5CC(CC(C5)C3)C4)cs2)CC1 [Compound I-6, 1-[4-(4-{[(3S,5S,7S)-Adamantan-1-ylsulphonyl]methyl}-1,3-thiazol-2-yl)piperidin-1-yl]-2-[5-methyl-3-(trifluoromethyl)-1H-pyrazol-1-yl]ethanone] | – | ≥ 70%
5 | Cc1cc(C(F)(F)F)nn1CC(=O)N1CCC(c2nc(CS(=O)(=O)c3cccc4cccnc34)cs2)CC1 [Compound I-9, 1-(4-{4-[(Quinolin-8-ylsulphonyl)methyl]-1,3-thiazol-2-yl}piperidin-1-yl)-2-[5-methyl-3-(trifluoromethyl)-1H-pyrazol-1-yl]ethanone] | ≥ 70% | –
6 | Cc1cc(C(F)(F)F)nn1CC(=S)N1CCC(c2nc(CSc3nnnn3-c3ccccc3)cs2)CC1 [Compound I-15, 2-[5-Methyl-3-(trifluoromethyl)-1H-pyrazol-1-yl]-1-[4-(4-{[(1-phenyl-1H-tetrazol-5-yl)sulphanyl]methyl}-1,3-thiazol-2-yl)piperidin-1-yl]ethanethione] | ≥ 70% | –
7 | Cc1ccc(C)c(NC(=O)N2CCC(c3nc(CSC4CCCCC4)cs3)CC2)c1 [Compound I-16] | – | ≥ 70%
8 | Cc1ccc([N+](=O)[O-])cc1NC(=O)N1CCC(c2nc(CSc3nnnn3-c3ccccc3)cs2)CC1 [Compound I-18] | ≥ 70% | ≥ 70%
9 | Cc1ccc(Cl)cc1NC(=O)N1CCC(c2nc(CSc3nnnn3-c3ccccc3)cs2)CC1 [Compound I-24] | ≥ 70% | ≥ 70%
10 | COc1ccc(OC)c(NC(=O)N2CCC(c3nc(CSc4nnnn4-c4ccccc4)cs3)CC2)c1 [Compound I-25] | – | ≥ 70%
11 | O=C(Cn1nc(C(F)(F)F)cc1C(F)(F)F)N1CCC(c2nc(CS(=O)(=O)c3nnnn3-c3ccccc3)cs2)CC1 [Compound I-26] | – | ≥ 70%
12 | Cc1ccc(C)c(CC(=O)N2CCC(c3nc(CSC45CC6CC(CC(C6)C4)C5)cs3)CC2)c1 [Compound I-27] | – | ≥ 70%
13 | O=C(Cn1nc(C(F)F)cc1C(F)F)N1CCC(c2nc(CS(=O)(=O)c3nnnn3-c3ccccc3)cs2)CC1 [Compound I-29] | ≥ 70% | ≥ 70%
14 | COc1ccc(C)cc1NC(=O)N1CCC(c2nc(CSc3nnnn3-c3ccccc3)cs2)CC1 [Compound I-33] | ≥ 70% | ≥ 70%
15 | O=C(Cn1nc(C(F)(F)F)cc1C(F)(F)F)N1CCC(c2nc(CSc3nnnn3-c3ccccc3)cs2)CC1 [Compound I-34] | ≥ 70% | ≥ 70%
16 | O=C(Cn1nc(C(F)F)cc1C(F)F)N1CCC(c2nc(CSc3nnnn3-c3ccccc3)cs2)CC1 [Compound I-35] | ≥ 70% | ≥ 70%
17 | O=C(Cc1cc(Cl)ccc1Cl)N1CCC(c2nc(CSc3nnnn3-c3ccccc3)cs2)CC1 [Compound I-46] | ≥ 70% | ≥ 70%
18 | Cc1ccc(C)c(NC(=O)N2CCC(c3nc(CSc4cccc5ccccc45)cs3)CC2)c1 [Compound I-47] | – | ≥ 70%
19 | O=C(Nc1cc(Cl)ccc1Cl)N1CCC(c2nc(CSc3nnnn3-c3ccccc3)cs2)CC1 [Compound I-49] | ≥ 70% | ≥ 70%
20 | Cc1ccc(C)c(CC(=O)N2CCC(c3nc(CSC4CCCCC4)cs3)CC2)c1 [Compound I-51] | – | ≥ 70%
21 | Cc1ccc(F)c(NC(=O)N2CCC(c3nc(CSc4nnnn4-c4ccccc4)cs3)CC2)c1 [Compound I-60] | ≥ 70% | ≥ 70%
22 | Cc1ccc(F)cc1NC(=O)N1CCC(c2nc(CSc3nnnn3-c3ccccc3)cs2)CC1 [Compound I-63] | – | ≥ 70%
23 | Cc1ccc(C)c(NC(=O)N2CCC(c3nc(CSC45CC6CC(CC(C6)C4)C5)cs3)CC2)c1 [Compound I-72] | ≥ 70% | ≥ 70%
24 | O=C(Nc1cc(C(F)(F)F)ccc1Cl)N1CCC(c2nc(CSc3nnnn3-c3ccccc3)cs2)CC1 [Compound I-76] | – | ≥ 70%
25 | COc1ccc(Cl)cc1NC(=O)N1CCC(c2nc(CSc3nnnn3-c3ccccc3)cs2)CC1 [Compound I-79] | – | ≥ 70%
26 | Cc1ccc(C)c(NC(=O)N2CCC(c3nc(CSc4nnnn4-c4ccccc4)cs3)CC2)c1 [Compound I-84] | ≥ 70% | ≥ 70%
27 | Cc1ccc(Cl)c(NC(=O)N2CCC(c3nc(CSc4nnnn4-c4ccccc4)cs3)CC2)c1 [Compound I-87] | ≥ 70% | ≥ 70%
28 | Cc1ccc(C)c(NC(=S)N2CCC(c3nc(CSc4nnnn4-c4ccccc4)cs3)CC2)c1 [Compound I-98] | ≥ 70% | ≥ 70%
